Consider one substance from paper doi:10.1101/2022.10.18.512811 (bioRxiv, 2022).

The experiment concerns the target T1, CpxA (two-hybrid construct) (E. coli) (UniProt P0AE82).
T1 sequence: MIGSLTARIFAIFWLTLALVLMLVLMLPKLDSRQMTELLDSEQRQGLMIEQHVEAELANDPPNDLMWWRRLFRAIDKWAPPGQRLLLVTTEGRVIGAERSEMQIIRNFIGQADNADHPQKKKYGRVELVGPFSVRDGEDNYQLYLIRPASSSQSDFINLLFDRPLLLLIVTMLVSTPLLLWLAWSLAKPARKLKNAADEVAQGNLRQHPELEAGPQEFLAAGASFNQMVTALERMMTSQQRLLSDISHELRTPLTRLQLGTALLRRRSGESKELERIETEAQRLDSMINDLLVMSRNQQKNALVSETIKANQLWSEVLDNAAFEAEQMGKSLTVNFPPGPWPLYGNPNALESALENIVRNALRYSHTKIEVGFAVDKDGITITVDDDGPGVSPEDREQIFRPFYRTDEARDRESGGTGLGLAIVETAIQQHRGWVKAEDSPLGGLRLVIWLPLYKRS
Nature of the experiment: two-hybrid.

No constants are given. Whether binding was seen depends on the method and setting.

In the case of “NlpE C-terminal domain (two-hybrid construct) (E. coli) (domain or fragment)”, the binding result is “no binding”.
